This is one part of the list. Further columns of the screen follow, without active or inactive calls. Compounds called inactive in the main read-out are mostly missing here. Potencies come from curve fits of mixed quality, noted in brackets.
Test: qHTS Assay for Lipid Storage Modulators in Drosophila S3 Cells;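 for cell number change: cells counted by Cell Tracker Red CMTPX staining in the red channel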
Conditions: BODIPY lipid droplet fluorescence, 18-24 h; for cell number change: measured here: cell count max response, cells fed with added oleic acid
Outline: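 Drosophila S3 cells loaded with oleic acid (400 uM, as added) and compounds at several concentrations; lipid droplets imaged by 488-nm laser-scanning cytometry, 500–530 nm intensity and object ratio to cell channel. Percent activity normalized to 20 uM Triacsin C.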

[1] = measured here: cell number channel AC50, cells fed with added oleic acid
[2] = measured here: lipid fluorescence (Fed channel) AC50, cells fed with added oleic acid

Row | SMILES | cell number change [%] | AC50 [1] | AC50 [2]
1 | Cc1cc(SCc2ccc(Cl)cc2Cl)nc(=O)[nH]1 | -60.2 | 3.26 µM [falling, partial curve] | –
2 | CCN1CCC2(CC1)C(C#N)=C(N)Oc1c2sc2nc(C)cc(C)c12 | -0.181 | – | 0.82 µM [rising, full curve, poor fit]
3 | CC(=O)N(C1=C(Cl)C(=O)c2ccccc2C1=O)c1ccc(C(=O)O)cc1 | -27 | – | 29.1 µM [falling, single point]
4 | COc1ccc(OCC(=O)Nc2ccccc2C(=O)N2CCCC2)cc1 | -30.7 | 20.6 µM [falling, partial curve, poor fit] | –
5 | Cc1cccc(C(=O)OCC(=O)N(C)CC(=O)Nc2ccc(Cl)c(C(F)(F)F)c2)c1 | 8.48 | – | 6.51 µM [rising, single point]
6 | CC1CCc2nn(CC(=O)NCCN3CCOCC3)cc2C1 (configuration not stated) | -42.6 | 10.3 µM [falling, partial curve, poor fit] | 25.9 µM [falling, partial curve, poor fit]
7 | Cc1ccc(C2=NN(C(=S)Nc3ccccc3)C(c3ccco3)C2)cc1 (configuration not stated) | -2.98 | – | 11.6 µM [rising, partial curve]
8 | CCn1ccnc1CN(C)C(=O)CC1C(=O)NCCN1Cc1c(F)cccc1Cl (configuration not stated) | -14 | – | 29.1 µM [falling, single point]
9 | Cc1cc(-c2c(C)[nH]n(-c3ccc(Cl)cc3)c2=O)n(-c2ccccc2)n1 | -19.4 | – | 20.6 µM [falling, single point]
10 | Cc1ccc(S(=O)(=O)/N=C2/C=C(Sc3ncn[nH]3)C(=O)c3ccccc32)c(C)c1 | -44.3 | 11.6 µM [falling, partial curve, poor fit] | 8.2 µM [falling, partial curve]
11 | CCN(CC)S(=O)(=O)c1cccc(C(=O)N/N=C/c2ccc([N+](=O)[O-])o2)c1 | -39.6 | 2.31 µM [falling, full curve] | –
12 | CC1(C)CC(=O)C(C(c2ccncc2)C2C(=O)CC(C)(C)CC2=O)C(=O)C1 | 25.3 | 0.146 µM [falling, full curve, poor fit] | 29.1 µM [falling, single point]
13 | O=C(NCc1ccc2c(c1)OCO2)C1CCCN1C(=O)Nc1cccc(Cl)c1 (configuration not stated) | 25.2 | – | 2.06 µM [rising, partial curve]
14 | COc1cc(-c2nc(CN(C)Cc3nnc(C)o3)c(C)o2)ccc1F | -1.02 | – | 6.51 µM [falling, single point]
15 | Cn1c(=O)c2cc(S(=O)(=O)NCCC(=O)Nc3ccc(F)cc3F)ccc2n(C)c1=O | -32.8 | – | 29.1 µM [rising, single point]
16 | CSc1cccc(NC(=O)CSc2ccc(Cl)cc2)c1 | 68.3 | 20.6 µM [rising, single point] | –
17 | O=C(COc1ccc(Cl)cc1)NCCN1CCCC1 | 9.94 | – | 6.51 µM [falling, single point]
18 | O=C(Cn1c(NCCCO)nc2ccccc21)c1ccc(Cl)cc1Cl | -37.6 | 18.4 µM [falling, partial curve, poor fit] | –
19 | CCCn1c(C)nnc1SCC(=O)NC1CCCCC1 | -4.9 | – | –
20 | CC1CCN(C(=O)CN2C(=O)C(=O)c3ccccc32)CC1 | 16.4 | – | –

Row | SMILES | cell number change [%] | AC50 [1] | AC50 [2]
21 | O=C(COC(=O)c1nc(Cl)ccc1Cl)NNC(=O)c1ccccc1 | -19.4 | 0.116 µM [falling, full curve, poor fit] | 0.651 µM [falling, full curve]
22 | CN(C)/C=C1\C(=O)N(c2ccc(Cl)cc2)CS1(=O)=O | -24.1 | – | 0.259 µM [rising, full curve, poor fit]
23 | O=C(NC1CCCCC1)C(c1ccc(F)cc1)N(C(=O)c1csnn1)C1CCCC1 (configuration not stated) | -7.62 | – | 29.1 µM [rising, partial curve, poor fit]
24 | CCN(CC)CC(C)OC(=O)c1cc(OC)c(OC)c(OC)c1 (configuration not stated) | -69 | 5.17 µM [falling, full curve] | 4.11 µM [falling, full curve]
25 | CCOc1ccc(CCNC(=O)CS(=O)(=O)Cc2nc(-c3ccccc3F)oc2C)cc1 | 0.708 | – | –
26 | CCOC(=O)c1[nH]c(C)c(C(=O)c2cc(F)ccc2F)c1C | – | 6.51 µM [rising, single point] | –
27 | COc1cc(NC(=O)CS(=O)(=O)c2ccccc2)cc(OC)c1OC | -12.6 | – | 11.6 µM [rising, partial curve, poor fit]
28 | CCCNC1=C(N(C(C)=O)c2cccc(F)c2)C(=O)c2ccccc2C1=O | -30.6 | – | 2.91 µM [falling, partial curve, poor fit]
29 | O=C(O)c1ccc(N2CCN(c3ccc(Cl)cc3)CC2)c([N+](=O)[O-])c1 | 12.8 | – | 0.116 µM [rising, full curve, poor fit]
30 | O=C(c1cc(C2CC2)nn1-c1ccccc1)N1CCN(Cc2ccccc2F)CC1 | 25 | – | 0.13 µM [rising, partial curve, poor fit]
31 | CC1CN(C(=O)C2(C)CC2(Br)Br)CC(C)O1 (configuration not stated) | -26 | 2.31 µM [falling, single point] | –
32 | COc1cccc2cc(C(=O)NCCN3CCOCC3)oc12 | 21.6 | – | 0.411 µM [falling, single point]
33 | Cc1ccc(N=c2ssnc2Cl)cc1 | -61.5 | 29.1 µM [falling, single point] | 32.6 µM [falling, single point]
34 | Cc1snc(S(=O)(=O)/C(C#N)=N/Nc2ccc(C(F)(F)F)cc2)c1C#N | 47.2 | – | 0.58 µM [rising, single point]
35 | O=C(O)c1ccc(COc2ccccc2[N+](=O)[O-])o1 | -40.2 | 9.2 µM [falling, partial curve, poor fit] | –
36 | CC(NC(=O)Cc1cccc(C(F)(F)F)c1)c1ccc(F)cc1 (configuration not stated) | -13.5 | – | –
37 | CC(=O)Nc1ccc(S(=O)(=O)N2CCN(C(=O)c3ncoc3-c3cccc(F)c3)CC2)cc1 | -6.58 | – | –
38 | CC1CCN(C(=O)COC(=O)c2cc(Cl)cc(Cl)c2N)CC1 | -12.7 | – | 8.2 µM [rising, single point]
39 | Cc1c(Cl)cccc1NC(=O)C1C2C=CC(C2)C1C(=O)O (configuration not stated) | 6.37 | – | 0.206 µM [rising, full curve, poor fit]
40 | COc1ccc(CN(C(=O)c2cccs2)c2ccccc2C(=O)O)cc1 | -48.2 | 0.517 µM [falling, full curve] | –

Row | SMILES | cell number change [%] | AC50 [1] | AC50 [2]
41 | O=c1c2ccccc2cnn1Cc1n[nH]c(=S)n1-c1ccc(F)cc1 | 1.42 | – | 6.51 µM [falling, single point]
42 | CCCCN(C)CCNC(=O)CN1C(=O)CSc2ccc(S(=O)(=O)N3CCCCC3)cc21 | 2.47 | 0.326 µM [rising, partial curve, poor fit] | –
43 | COc1ccc2c3c([nH]c2c1)C1CC2C(CC(O)C(OC)C2CO)CN1CC3 (configuration not stated) | -5.91 | – | –
44 | CC(Oc1ccc(F)cc1)C(=O)Nc1nc(-c2ccccn2)cs1 (configuration not stated) | 8.88 | 6.51 µM [rising, single point] | 6.51 µM [rising, single point]
45 | Cc1cc(C)c(C(=O)CN2C(=O)C(=O)N(C3CCCC3)C2=O)cc1C | 42.3 | 16.4 µM [rising, single point] | 16.4 µM [rising, partial curve]
46 | COc1cccc(C(=O)NCC2(c3ccc(OC)c(OC)c3)CCCC2)c1 | -15.9 | – | –
47 | O=c1ncn(-c2ccc(F)cc2)c2ncccc12 | -49.6 | 0.116 µM [falling, full curve, poor fit] | 29.1 µM [falling, single point]
48 | Nc1ccc2oc(-c3ccccc3Cl)cc(=O)c2c1O | 0.968 | – | 0.82 µM [rising, full curve]
49 | Cc1cc(C)c(S(=O)(=O)NCCC2CCCN2C)c(C)c1 (configuration not stated) | -27.2 | 4.11 µM [falling, full curve, poor fit] | 4.11 µM [falling, full curve]
50 | CCCOc1ccc(-c2cnc(SCC(N)=O)nc2N)cc1 | 32.3 | 2.91 µM [rising, single point] | –
51 | COC(=O)c1cn(CC(=O)Nc2ccc(OC)cc2)c2ccccc12 | -0.88 | – | –
52 | CN(C)CCC#CC(O)(c1ccccc1)c1ccccc1 | 18.7 | 6.51 µM [falling, single point] | –
53 | CSc1ccccc1C(=O)Nc1ccc(C)cc1C | – | – | 9.2 µM [rising, partial curve, poor fit]
54 | O=C(NCc1ccccc1Cl)C1CCN(C(=O)c2sccc2-n2cccc2)CC1 | 31.9 | 29.1 µM [rising, single point] | –
55 | NS(=O)(=O)c1ccc(CCNc2nc(CN3CCCCC3)nc3sc4c(c23)CCC4)cc1 | -27.6 | – | 11.6 µM [falling, partial curve]
56 | COc1ccc(-c2noc(C3CCCN(C(=O)c4ccccc4OC)C3)n2)cc1OC (configuration not stated) | -11.1 | – | –
57 | Cc1onc(-c2ccncc2)c1C(=O)O | – | – | 14.6 µM [falling, partial curve]
58 | CCc1nc2ccc(C(=O)N(C)CC(=O)Nc3ccc(F)c(F)c3F)cc2nc1CC | 20 | – | –
59 | COc1cc(CCC(=O)NCc2ccc3c(c2)OCO3)cc(OC)c1OC | -13.4 | – | 29.1 µM [falling, single point]
60 | O=C(CSc1nc(-c2ccccc2)cs1)Nc1ccccc1[N+](=O)[O-] | 2.25 | – | 0.82 µM [rising, full curve, poor fit]

Whole records as entered above. Values in the order: cell number change [%] | AC50 [1] | AC50 [2]
CSc1ccccc1C(=O)Nc1ccc(C)cc1C in the list: – | – | 9.2 µM [rising, partial curve, poor fit]
O=C(CSc1nc(-c2ccccc2)cs1)Nc1ccccc1[N+](=O)[O-] in the list: 2.25 | – | 0.82 µM [rising, full curve, poor fit]
NS(=O)(=O)c1ccc(CCNc2nc(CN3CCCCC3)nc3sc4c(c23)CCC4)cc1 in the list: -27.6 | – | 11.6 µM [falling, partial curve]
CCc1nc2ccc(C(=O)N(C)CC(=O)Nc3ccc(F)c(F)c3F)cc2nc1CC in the list: 20 | – | –
